{"source": "PubChem BioAssay AID1347423", "about": "(Functional Genomics Laboratory (NCATS/FGL), 2020)", "note": "Out of some 52,000 sequences screened, about 210 (0.4%) were called active.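 How the source made its calls: active means gene whose silencing raises cell survival under the drug, median off-target-corrected z-score across its silencing RNAs 2 or more; inactive means the rest.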 This is one part of the list."}
{"assay": "Resistance to Poly (ADP-Ribose) Polymerase inhibitor: Gene Identification via Genome-wide siRNA Screen", "details": "mouse BRCA2 R2336H ES cells, olaparib, CellTiter-Glo viability; active compounds read high", "summary_of_the_method": "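Mouse BRCA2 R2336H ES cells were reverse-transfected with siRNA (20 nM final), treated at 48 h with 500 nM olaparib, and read by CellTiter-Glo after 72 h. Scores: MAD-based z per siRNA, median per gene, seed off-target correction.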"}
{"sequence": "GCCACGUCUAAGUAUCAUUTT against Col6a1", "z-score": "inactive: -0.765"}
{"sequence": "GGAAGCUUCACAUCAGCCATT against Hoxb5", "z-score": "inactive: -0.111"}
{"sequence": "GGGAAAUGGAGGAUAAUUATT against B930008K04Rik", "z-score": "inactive: -1.72"}
{"sequence": "GGUGGUUAAAUGGUUUUAATT against Prkg2", "z-score": "inactive: 0.362"}
{"sequence": "CCCUCUUAGGAGCUAGUGATT against Atp2b4", "z-score": "inactive: -1.83"}
{"sequence": "GGAAAAGGUGGAGUUCUUATT against 9830160G03Rik", "z-score": "inactive: -0.547"}
{"sequence": "CCUGACAUUCUUUAAUCCATT against D930020E02Rik", "z-score": "inactive: 0.125"}
{"sequence": "GGAUGUCGUGUGUUACUUGTT against Dgkg", "z-score": "inactive: 0.834"}
{"sequence": "CCAUGGGCCUACCAAACAGTT against B230218O03", "z-score": "inactive: 1.02"}
{"sequence": "GGGCCACAAGAAAUGAUAUTT against Nqo2", "z-score": "inactive: -1.09"}
{"sequence": "GGAAUAAAGAUCUUUGGUUTT against Vip", "z-score": "inactive: 0.51"}
{"sequence": "GGUGACAACUGACUUCGAATT against C87499", "z-score": "inactive: 0.27"}
{"sequence": "GGACCAAAUUACAUAGCAATT against Itgb3bp", "z-score": "inactive: 1.32"}
{"sequence": "CCCUAAAGUCCAGAAAAUATT against Olfr1211", "z-score": "inactive: -1.1"}
{"sequence": "CGUCACUGAGAGAUUCAAATT against 4831417L10", "z-score": "inactive: 3.13"}
{"sequence": "GGACCUAAAGUUUCUCUCATT against Ccnc", "z-score": "inactive: 0.608"}
{"sequence": "GCAGAGACGUGAUUGAUCGTT against Hist2h2bb", "z-score": "inactive: -1.49"}
{"sequence": "GGCUGGAUUUUAUUUUGUUTT against D830039M14Rik", "z-score": "inactive: 0.139"}
{"sequence": "GGAGUAUCUUGAAAUGCAUTT against A530088I07Rik", "z-score": "inactive: 0.83"}
{"sequence": "GGACUACGAUGAAGAGUUGTT against Rnf134", "z-score": "inactive: 0.1"}
{"sequence": "GGAUGCAGAGAAGAAUCUGTT against 2400006A19Rik", "z-score": "inactive: -2.42"}
{"sequence": "GGAGAAGGCAAAGACUCUGTT against Serpina3n", "z-score": "inactive: -1.39"}
{"sequence": "GGUAUGAUGGACUCUCUGUTT against Olfr186", "z-score": "inactive: -2.58"}
{"sequence": "CCACCCUGUGAAAAAGUCATT against Ccr3", "z-score": "inactive: 1.15"}
{"sequence": "CCGAGUACCAAGAUUCUGATT against 1600015I10Rik", "z-score": "inactive: 1.18"}
{"sequence": "CCAACCGAGUCAUUUAAGGTT against Runx2", "z-score": "inactive: 1.29"}
{"sequence": "GGUGUUGAGAUCCACAAGGTT against 2210012G02Rik", "z-score": "inactive: 1.88"}
{"sequence": "GGGAUCAAUGCUUAAUACATT against Zfp2", "z-score": "inactive: 0.556"}
{"sequence": "GGUAAAUAGUCACCUACGGTT against Dia1", "z-score": "inactive: 0.858"}
{"sequence": "GGAAGAACUCAAGAGGGAATT against Ppap2c", "z-score": "inactive: 0.415"}
{"sequence": "GCCAUUGCCUCAUAAUUUATT against Magmas", "z-score": "inactive: -2.29"}
{"sequence": "GCUUUUGUGACUCUGCUGATT against 1300006N24Rik", "z-score": "inactive: -0.846"}
{"sequence": "AAUUCAUCCUCAGCGUACATT against D830030K20Rik", "z-score": "inactive: 0.478"}
{"sequence": "CGAUAUCACUCAGGAGUGUTT against 0710007A14Rik", "z-score": "inactive: 0.132"}
{"sequence": "GGGCUUCAAGCAUAGCUUCTT against Fiz1", "z-score": "inactive: -0.24"}
{"sequence": "GAUUCAGCAUUAUUUCUGUTT against Olfr980", "z-score": "inactive: 0.218"}
{"sequence": "AGUGAACAUCGAUCGCAUGTT against Gng8", "z-score": "inactive: 0.283"}
{"sequence": "GGAGUUGGUCAAGGUGCUUTT against Parvb", "z-score": "inactive: 2.21"}
{"sequence": "CGUAUAUCGAUGAAGAUGATT against BC016579", "z-score": "inactive: -0.542"}
{"sequence": "GGAGCAUCUCCUCAUGGAUTT against 4921517D21Rik", "z-score": "inactive: 0.514"}
{"sequence": "CGGUAUGUUAUUUUGGUUGTT against 1500011H22Rik", "z-score": "inactive: 0.654"}
{"sequence": "GGGUUAAGGUAGUUUCUAATT against 4930579C12Rik", "z-score": "inactive: 1.09"}
{"sequence": "GGCCCGAAUAGCUAUGACUTT against Cldn7", "z-score": "inactive: -0.0361"}
{"sequence": "GCUUCUACGUAUGUGCCCATT against Tpx2", "z-score": "inactive: -1.26"}
{"sequence": "GGAUUCAAGGCUGUGGGAATT against Timp1", "z-score": "inactive: -1.08"}
{"sequence": "GGAGAUUGCCAUAGCUGCUTT against Mybl2", "z-score": "inactive: -0.0756"}
{"sequence": "GGACACCACCAAUCUUGACTT against 6330406P08Rik", "z-score": "inactive: 1.1"}
{"sequence": "GGGCUUCUUCAGACGAACATT against Nr1i3", "z-score": "inactive: -2.42"}
{"sequence": "CCACCCUCUCAUUACAGACTT against 9330174J19Rik", "z-score": "inactive: -1.23"}
{"sequence": "GGAUCACAGCGAUUAUUGATT against D630028G08Rik", "z-score": "inactive: -0.512"}
{"sequence": "GGUCUUAGUAAUAUCAUCGTT against Cacng2", "z-score": "inactive: -0.19"}
{"sequence": "CGACUGCCCAUAAGAAAACTT against 1700007H16Rik", "z-score": "inactive: -0.642"}
{"sequence": "GCCAUCGCUAACUUACGGATT against BC024955", "z-score": "inactive: 0.805"}
{"sequence": "GGUCUUUCAGAAAGUAGAUTT against Btbd4", "z-score": "inactive: 0.425"}
{"sequence": "GCAAAAGGGCUGUUUGUAGTT against Olfr1279", "z-score": "inactive: 0.821"}
{"sequence": "CCACAAGGUCUUUGGAUGATT against Pcdha8", "z-score": "inactive: 0.67"}
{"sequence": "GGUCAAUGCUUACUAUUCATT against Kel", "z-score": "inactive: -0.857"}
{"sequence": "GGUACCAUACGACAUUAAUTT against C330005L02Rik", "z-score": "inactive: 1.08"}
{"sequence": "CGUGGUUAGACCAAAUAUUTT against Mrps6", "z-score": "inactive: 0.125"}
{"sequence": "GCUGUGCUACCCUCAUUCUTT against Nxf", "z-score": "inactive: 1.36"}
{"sequence": "GGUAAAAGUAGAAGCUAUUTT against Zbtb3", "z-score": "inactive: -1.31"}
{"sequence": "GGAAAGUCAUUUCCCUGUUTT against Sprr2h", "z-score": "inactive: -0.406"}
{"sequence": "CCAUGUCAAUAUAGCUGUCTT against Igfbpl1", "z-score": "inactive: 0.645"}
{"sequence": "GGAGUGUGACAUUGGUGAUTT against Dusp22", "z-score": "inactive: -0.983"}
{"sequence": "CGCAACCAGUUUGUUCCUGTT against Ugt1a9", "z-score": "inactive: -0.143"}
{"sequence": "CGAUCGGCGACCUUUUAGATT against Irak3", "z-score": "inactive: -1.08"}
{"sequence": "GGACAGAAUCACGGUUUCCTT against 5830443L24Rik", "z-score": "inactive: -0.493"}
{"sequence": "GCAUGUAAGUACUAGAUUATT against 3000002G13Rik", "z-score": "inactive: 0.776"}
{"sequence": "GGUGGAAGCAAGAGAAAAUTT against Tnp1", "z-score": "inactive: -0.637"}
{"sequence": "GGGAUUUCAUCGUGCAACGTT against Ndufa2", "z-score": "inactive: 1.02"}
{"sequence": "GCUGGAUACUAAAUAUCCUTT against Dctd", "z-score": "inactive: -0.832"}
{"sequence": "GGCCUUUGUACAUGUUAGGTT against Lman1l", "z-score": "inactive: 0.663"}
{"sequence": "GGCACUAAUGUAAAAACCATT against Bbs7", "z-score": "inactive: 0.579"}
{"sequence": "GGAGAAGCAUAAAUUUGAGTT against D230007K08Rik", "z-score": "inactive: -0.325"}
{"sequence": "GGCUUUCCUUACCAUAUAUTT against Trim7", "z-score": "inactive: -0.629"}
{"sequence": "GGUGACCUACAAUCUCAAATT against Adam2", "z-score": "inactive: 0.221"}
{"sequence": "GCUAUUAGAGAGGACUAAGTT against A430105I19Rik", "z-score": "inactive: 0.842"}
{"sequence": "GGCAAAGUUUGGGAUUACATT against Ntng1", "z-score": "inactive: 0.342"}
{"sequence": "GGGAGGAGAAAAAUAUUCUTT against Olfr1094", "z-score": "inactive: 0.314"}
{"sequence": "GGAGAUUGAGAAGUUUCUATT against A930018B01Rik", "z-score": "inactive: -0.325"}
{"sequence": "GCUGAUGUUUGUUAUGUACTT against Rgmb", "z-score": "inactive: -0.74"}
{"sequence": "GGGCAAUGAAUGACAUUGGTT against Gabrd", "z-score": "inactive: -1.89"}
{"sequence": "GGUACCCACACAAUUUUUATT against Alg5", "z-score": "inactive: 0.232"}
{"sequence": "GGUGAAAUGUCUUAUAACATT against 5430404L10Rik", "z-score": "inactive: 0.695"}
{"sequence": "CGGUAGAGUCAGCAUUUGATT against Sez6", "z-score": "inactive: -0.0576"}
{"sequence": "GCUACAGCCACACCAAAGUTT against Nkx2-9", "z-score": "inactive: -1.15"}
{"sequence": "GAAGCUAGAAGAGAUUAAATT against Tsga14", "z-score": "inactive: -0.0798"}
{"sequence": "GCUAUUCCGGAAUAAGAGUTT against B230343H07Rik", "z-score": "inactive: -0.349"}
{"sequence": "GGAGAAACUCUUCAGGCUUTT against 3930402F23Rik", "z-score": "inactive: -1.41"}
{"sequence": "CGGCCUACAUCUUAGUGGUTT against Cd151", "z-score": "inactive: -1.59"}
{"sequence": "GGUUACAGAGAGACAUCAUTT against Cdk5rap2", "z-score": "inactive: 1.23"}
{"sequence": "GGAAAGAAGGUGAACAACATT against Phax", "z-score": "inactive: 0.545"}
{"sequence": "GCUGCUAUGAGAGAGUUUUTT against Serpind1", "z-score": "inactive: -0.0941"}
{"sequence": "CCAGAUCCUAUCUUUCGAGTT against 2610318N02Rik", "z-score": "inactive: 0.535"}
{"sequence": "GGCACCAUGUACCAAAUCCTT against Fetub", "z-score": "inactive: 1.32"}
{"sequence": "GUAAUCUGGCGAUUGUCUGTT against Hist1h2ab", "z-score": "inactive: 0.0939"}
{"sequence": "GCCUUCAGUCCUAGAAACCTT against Lrrk1", "z-score": "inactive: -1.29"}
{"sequence": "GGAGGUGGAUGUUAAAGUUTT against Ubxd4", "z-score": "inactive: 0.251"}
{"sequence": "CCUGGACAUAACCAAUGUATT against Glrp1", "z-score": "inactive: -0.0778"}
{"sequence": "GGUACAGGUUGACCAAACUTT against Atp6v1e2", "z-score": "inactive: -0.139"}
{"sequence": "GGACAACGAGUGUCUGGGUTT against Cx3cr1", "z-score": "inactive: 1.98"}
{"sequence": "CCAGAUUAUGACAAAGCGUTT against Glyat", "z-score": "inactive: -0.0709"}
{"sequence": "CCUGGAUCGGAACCAAAUGTT against Ccl2", "z-score": "inactive: -2.11"}
